Experimental data taken from PMC10960409.
These are yes or no findings as the source states them, for the method shown. For part of these data: In cells and extracts the contact can be indirect. Some entries that bind do so weakly or less than the wild type. Tags and fused reporters may be left off the sequences shown.

Key:
[1] = biological target: T1, OsMYB30C (yeast two-hybrid bait fusion) (rice) (UniProt Q6K1S6); experiment: two-hybrid; OsPCF5 in prey vector pGAD-T7, MYB in bait vector pGBK-T7, yeast AH109; growth on SD-Leu-Trp-His-Ade with 5 mM 3-AT
T1 sequence: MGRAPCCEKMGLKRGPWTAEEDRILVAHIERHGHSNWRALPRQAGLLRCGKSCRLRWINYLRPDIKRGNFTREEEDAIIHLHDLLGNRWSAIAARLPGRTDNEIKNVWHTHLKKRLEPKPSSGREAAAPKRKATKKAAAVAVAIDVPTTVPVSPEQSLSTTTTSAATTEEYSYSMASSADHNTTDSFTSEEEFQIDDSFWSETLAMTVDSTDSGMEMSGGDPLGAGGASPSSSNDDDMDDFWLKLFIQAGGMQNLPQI

[2] = biological target: T2, OsMYB30C (luciferase complementation fusion) (rice) (UniProt Q6K1S6); experiment: split reporter; luciferase complementation assay (LCA), NLuc and CLuc fusions co-infiltrated into N. benthamiana leaves, signal read 48 h after infiltration
T2 sequence: T1 sequence

nYFP-OsMYB30C (rice) = biological target: T3, nYFP-OsMYB30C (rice) (UniProt Q6K1S6); experiment: split reporter; BiFC, nYFP-OsMYBs and OsPCF5-cYFP co-infiltrated into N. benthamiana leaves, confocal microscopy after 48 h
T3 sequence: T1 sequence

B1: OsPCF5 (yeast two-hybrid prey fusion) (protein, UniProt Q8LT07 1-458)
chain: MGDAGGHSHHHQHGFQPQLLSFGGVGHHHHLHQFTAQPQPPAASHTRGRGGGGEIVPATTTPRSRGGGGGGGGEIVAVQGGHIVRSTGRKDRHSKVCTARGPRDRRVRLSAHTAIQFYDVQDRLGYDRPSKAVDWLIKNAKDAIDKLDVLPAWQPTAGGAGAGNAAAPPSSSTHPDSAENSDDQAQAITVAHTAFDFAGGGSGGTSFLPPSLDSDAIADTIKSFFPMGGTAGGEASSSTTAAQSSAMGFQSYTPDLLSRTGSQSQELRLSLQSLPDPMFHHQQHRHGGGGGGGNGTTQQALFSGAANYSFGGGAMWATEQQAQNQRMLPWNVPDPGGGGGAAYLFNVSQQAAHMQAAAAALGGHQSQFFFQRGPLQSSNQPSERGWPETVEADNQMSHHQGGLSPSVSAAIGFAAPGIGFSGFRLPARIQGDEEHNGGGGGNGDKPPPPSSVSSASHH
binding [1]: binds

B2: OsPCF5 (luciferase complementation fusion) (protein, UniProt Q8LT07 1-458)
chain: B1 chain
binding [2]: binds

B3: OsPCF5-cYFP (protein, UniProt Q8LT07 1-458)
chain: B1 chain
binding (nYFP-OsMYB30C (rice)): binds
